Data from article PMC6629679.
These are yes or no findings as the source states them, for the method shown. In cells and extracts the contact can be indirect.

Protein sequences, listed by entry. Tags and fused reporters are not part of them. Lines headed by an entry give the natural chain unless they say otherwise; changes in a name come on top.
UniProt Q96C92: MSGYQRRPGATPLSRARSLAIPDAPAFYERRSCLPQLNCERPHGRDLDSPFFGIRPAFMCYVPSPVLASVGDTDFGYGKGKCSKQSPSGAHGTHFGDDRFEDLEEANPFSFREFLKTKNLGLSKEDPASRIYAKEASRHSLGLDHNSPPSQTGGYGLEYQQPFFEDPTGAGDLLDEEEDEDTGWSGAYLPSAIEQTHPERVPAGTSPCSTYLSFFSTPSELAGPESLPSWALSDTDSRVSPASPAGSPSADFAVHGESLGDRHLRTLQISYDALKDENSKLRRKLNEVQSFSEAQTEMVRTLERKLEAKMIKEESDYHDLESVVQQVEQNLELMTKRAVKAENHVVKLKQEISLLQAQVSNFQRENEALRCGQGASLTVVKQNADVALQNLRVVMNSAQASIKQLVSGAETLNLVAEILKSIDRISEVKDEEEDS
UniProt Q12923: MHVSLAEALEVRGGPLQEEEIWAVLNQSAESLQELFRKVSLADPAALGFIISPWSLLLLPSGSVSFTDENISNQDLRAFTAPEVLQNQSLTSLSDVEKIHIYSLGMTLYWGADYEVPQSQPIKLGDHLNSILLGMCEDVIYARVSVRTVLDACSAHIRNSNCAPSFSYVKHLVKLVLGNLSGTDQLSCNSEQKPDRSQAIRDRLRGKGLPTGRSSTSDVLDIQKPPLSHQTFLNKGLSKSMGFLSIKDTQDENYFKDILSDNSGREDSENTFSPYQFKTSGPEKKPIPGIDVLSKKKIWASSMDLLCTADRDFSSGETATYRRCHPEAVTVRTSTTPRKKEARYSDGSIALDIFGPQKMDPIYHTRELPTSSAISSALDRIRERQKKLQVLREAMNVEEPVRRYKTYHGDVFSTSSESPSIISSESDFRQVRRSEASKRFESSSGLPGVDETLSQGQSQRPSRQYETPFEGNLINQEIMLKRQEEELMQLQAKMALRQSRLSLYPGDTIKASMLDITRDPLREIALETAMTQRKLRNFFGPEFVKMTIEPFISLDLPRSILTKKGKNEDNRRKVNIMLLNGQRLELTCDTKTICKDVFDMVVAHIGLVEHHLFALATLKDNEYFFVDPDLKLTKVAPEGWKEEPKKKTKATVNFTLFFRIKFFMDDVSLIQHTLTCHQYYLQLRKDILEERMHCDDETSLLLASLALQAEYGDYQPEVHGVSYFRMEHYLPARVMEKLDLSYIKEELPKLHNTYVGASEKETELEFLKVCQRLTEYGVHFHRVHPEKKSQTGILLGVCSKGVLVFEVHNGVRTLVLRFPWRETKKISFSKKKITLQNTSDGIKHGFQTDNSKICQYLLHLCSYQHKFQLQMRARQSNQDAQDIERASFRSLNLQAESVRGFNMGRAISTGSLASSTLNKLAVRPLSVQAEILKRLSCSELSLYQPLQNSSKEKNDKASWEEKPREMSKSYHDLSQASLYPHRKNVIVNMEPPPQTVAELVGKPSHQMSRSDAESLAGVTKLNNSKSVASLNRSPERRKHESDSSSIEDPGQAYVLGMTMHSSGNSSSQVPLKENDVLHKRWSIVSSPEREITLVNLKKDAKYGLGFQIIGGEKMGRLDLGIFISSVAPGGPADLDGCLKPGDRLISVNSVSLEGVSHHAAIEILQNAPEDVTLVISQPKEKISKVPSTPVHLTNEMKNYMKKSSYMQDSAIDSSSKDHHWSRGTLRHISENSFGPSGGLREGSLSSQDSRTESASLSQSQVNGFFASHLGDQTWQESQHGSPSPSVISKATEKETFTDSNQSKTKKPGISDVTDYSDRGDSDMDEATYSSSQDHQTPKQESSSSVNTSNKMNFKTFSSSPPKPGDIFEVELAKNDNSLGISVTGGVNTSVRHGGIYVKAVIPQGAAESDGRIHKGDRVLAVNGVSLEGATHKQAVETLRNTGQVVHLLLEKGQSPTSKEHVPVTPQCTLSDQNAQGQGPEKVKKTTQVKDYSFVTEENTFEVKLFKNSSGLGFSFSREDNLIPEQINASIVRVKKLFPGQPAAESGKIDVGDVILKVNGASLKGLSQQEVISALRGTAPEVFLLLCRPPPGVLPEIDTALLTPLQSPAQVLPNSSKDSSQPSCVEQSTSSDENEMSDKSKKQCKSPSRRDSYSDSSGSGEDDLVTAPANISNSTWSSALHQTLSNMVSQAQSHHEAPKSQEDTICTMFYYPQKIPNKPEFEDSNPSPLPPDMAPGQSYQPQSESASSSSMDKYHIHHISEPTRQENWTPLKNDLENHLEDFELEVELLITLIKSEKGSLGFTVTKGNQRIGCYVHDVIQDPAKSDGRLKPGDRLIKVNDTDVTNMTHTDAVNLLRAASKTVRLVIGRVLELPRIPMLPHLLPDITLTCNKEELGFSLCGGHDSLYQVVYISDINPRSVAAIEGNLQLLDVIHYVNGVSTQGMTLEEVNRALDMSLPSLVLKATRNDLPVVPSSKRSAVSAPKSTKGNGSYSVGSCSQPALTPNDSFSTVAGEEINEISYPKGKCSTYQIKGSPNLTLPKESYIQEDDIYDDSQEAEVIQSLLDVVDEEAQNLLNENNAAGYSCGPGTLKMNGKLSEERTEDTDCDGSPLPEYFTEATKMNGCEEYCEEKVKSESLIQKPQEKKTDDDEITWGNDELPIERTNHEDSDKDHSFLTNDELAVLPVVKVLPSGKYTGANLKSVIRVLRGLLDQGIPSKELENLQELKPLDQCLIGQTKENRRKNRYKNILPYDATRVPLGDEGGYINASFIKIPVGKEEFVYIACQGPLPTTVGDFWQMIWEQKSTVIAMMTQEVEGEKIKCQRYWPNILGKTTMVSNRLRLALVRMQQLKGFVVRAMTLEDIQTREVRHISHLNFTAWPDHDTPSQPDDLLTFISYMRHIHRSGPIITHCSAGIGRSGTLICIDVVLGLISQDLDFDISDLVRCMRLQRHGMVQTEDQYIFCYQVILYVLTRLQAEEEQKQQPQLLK

How the values were obtained:
GFP-ENTR1 E171A = GFP-ENTR1 E171A (UniProt Q96C92); experiment: co-IP; HeLa cells transfected with GFP-tagged ENTR1 constructs; GFP-Trap_A for 3 h at 4 °C in lysis buffer (50 mM HEPES pH 7.5, 150 mM NaCl, 1.5 mM MgCl2, 1 mM EDTA, 10% glycerol, 1% Triton X-100); western blot for endogenous PTPN13
GFP-ENTR1 P167A = GFP-ENTR1 P167A (UniProt Q96C92); experiment: as above

binding (GFP-ENTR1 E171A): no binding
binding (GFP-ENTR1 P167A): no binding
Substance: PTPN13, endogenous full-length (from UniProt Q12923 1-2485)
